Molecules are shown by their SMILES. Bounds are passed on as bounds.

This is an account of results in patent US4877727A, “Substrate for determining leucine aminopeptidase or gamma-glutamyltranspeptase activity” (Kyowa Medex Co., Ltd., priority 1984, dated 1989).

This data set is described as follows: Sensitivity of pigment (free compound + EMSE + laccase). The settings on record: absorption at λmax, 37° C., 5 minutes; sensitivity of 5-aminosalicylic acid defined as 100. The method, then:
50 μl of 1 mM each free compound was added to 3 ml of 0.1M phosphate buffer containing 0.5 mg/ml EMSE and 1 U/ml laccase and the mixture was incubated at 37° C. for 5 minutes. The absorption of the reaction solution at λmax was measured. As a control, 5-aminosalicylic acid was used and the reaction of the compound with 2,6-xylenol was carried out in the presence of metaperiodate under strong alkaline conditions.
The results are shown, defining the sensitivity of 5-aminosalicylic acid as 100.
Take `Cc1cc(NC(=O)[C@@H](N)CC(C)C)ccc1N(CCS(=O)(=O)O)CCS(=O)(=O)O` [compound 12]: the “SE: Sensitivity of pigment” value was above 500.

For the compound `CCN(CC(O)CS(=O)(=O)O)c1ccc(NC(=O)[C@@H](N)CC(C)C)cc1` (stereo partly drawn) [compound 6], the “SE: Sensitivity of pigment” value is listed as above 500.

`COc1cc(N(CCCCS(=O)(=O)O)CCCCS(=O)(=O)O)c(C)cc1NC(=O)[C@@H](N)CC(C)C` [compound 14]: the “SE: Sensitivity of pigment” value is 406.

Consider `CN(CCCS(=O)(=O)O)c1ccc(NC(=O)CC[C@H](N)C(=O)O)cc1` [compound 3], for which the “SE: Sensitivity of pigment” value is above 500.

With `CC(C)C[C@H](N)C(=O)Nc1ccc(O)c(C(=O)O)c1` [Control, reference compound], the “SE: Sensitivity of pigment” value is reported as 100.

On to `CC(C)C[C@H](N)C(=O)Nc1ccc(N(CCS(=O)(=O)O)CCS(=O)(=O)O)c(C#N)c1` [compound 11], for which the “SE: Sensitivity of pigment” value was found to be 177.

As for `N[C@@H](CCC(=O)Nc1ccc(N(CCCS(=O)(=O)O)CCCS(=O)(=O)O)cc1)C(=O)O` [compound 1], the “SE: Sensitivity of pigment” value is above 500.

For the compound `COC(=O)c1cc(NC(=O)[C@@H](N)CC(C)C)ccc1N(CCCCS(=O)(=O)O)CCCCS(=O)(=O)O` [compound 13], the “SE: Sensitivity of pigment” value amounted to 312.

Regarding `CC(C)C[C@H](N)C(=O)Nc1ccc(N(CCCS(=O)(=O)O)CCCS(=O)(=O)O)c(S(=O)(=O)O)c1` [compound 8], the “SE: Sensitivity of pigment” value was determined as 237.

Consider `CC(C)C[C@H](N)C(=O)Nc1ccc(N(CCCS(=O)(=O)O)CCCS(=O)(=O)O)c(Cl)c1` [compound 10], for which the “SE: Sensitivity of pigment” value came out at 315.

Take `CC(C)C[C@H](N)C(=O)Nc1ccc(N(CCCS(=O)(=O)O)CCCS(=O)(=O)O)cc1` [Compound No. 2, L-leucyl-p-N,N-disulfopropyl aminoanilide]: the “SE: Sensitivity of pigment” value was above 500.

As to `CCN(CC(O)CS(=O)(=O)O)c1ccc(NC(=O)CC[C@H](N)C(=O)O)cc1` (stereo partly drawn) [compound 5], the “SE: Sensitivity of pigment” value is listed as above 500.

As for `CC(C)C[C@H](N)C(=O)Nc1ccc(N(C)CCCS(=O)(=O)O)cc1` [compound 4], the “SE: Sensitivity of pigment” value is above 500.

For `N[C@@H](CCC(=O)Nc1ccc(N(CCCS(=O)(=O)O)CCCS(=O)(=O)O)c(Cl)c1)C(=O)O` [compound 9], the “SE: Sensitivity of pigment” value stood at 315.

For the compound `N[C@@H](CCC(=O)Nc1ccc(N(CCCS(=O)(=O)O)CCCS(=O)(=O)O)c(S(=O)(=O)O)c1)C(=O)O` [compound 7], the “SE: Sensitivity of pigment” value amounted to 237.
